Assay results reported in publication PMC6214653.
No constants are given. Whether binding was seen depends on the method and setting. For some of these results: A result given as binding can be weak or reduced; the word gives no strength. For some of these results: In cells and extracts the contact can be indirect. For some of these results: Tags and fused reporters may be left off the sequences shown.

Legend:
[1] = target: FLAG-tagged mouse TET1 catalytic domain (aa1367-2039) (mouse); test: co-IP; FLAG IP (anti-FLAG M2 magnetic beads, 4°C) from lysates of HEK293T cells co-expressing FLAG-TET1 CD constructs and His-OGT constructs; 50 mM Tris pH 8, 200 mM NaCl, 1% NP40; western blot for FLAG and OGT or His
[2] = target: FLAG-TET1 CD ΔC45 (mouse); test: as above
[3] = target: recombinant mouse TET1 catalytic domain (aa1367-2039), wild type (mouse); test: pull-down; 2.5 µM rOGT and 2.5 µM rTET1 CD pre-incubated 15 min at room temperature in 50 mM Tris pH 7.5, 100 mM NaCl, 0.02% Tween-20, no UDP-GlcNAc; captured on TET1 antibody bound to Protein G Dynabeads; Coomassie stain; both purified
[4] = target: recombinant mouse TET1 catalytic domain (aa1367-2039), D2018A (mouse); test: as above
[5] = target: endogenous full length TET1 with C-terminal 3xFLAG tag, D2018A (D2018A mESCs) (mouse (endogenous in LF2 mESCs)); test: co-IP; FLAG IP from WT and D2018A mESCs (TET1-3xFLAG from the endogenous locus); western blot for FLAG and OGT
[6] = target: FLAG-tagged mouse TET1 catalytic domain (aa1367-2039) (mouse); test: co-IP; FLAG IP (anti-FLAG M2 magnetic beads, 4°C) from lysates of HEK293T cells overexpressing only FLAG-TET1 CD constructs; endogenous OGT detected by western blot
[7] = target: FLAG-TET1 CD ΔC45 (mouse); test: as above

B1: His-tagged human OGT (enzyme, UniProt O15294 1-1046)
chain: MASSVGNVADSTEPTKRMLSFQGLAELAHREYQAGDFEAAERHCMQLWRQEPDNTGVLLLLSSIHFQCRRLDRSAHFSTLAIKQNPLLAEAYSNLGNVYKERGQLQEAIEHYRHALRLKPDFIDGYINLAAALVAAGDMEGAVQAYVSALQYNPDLYCVRSDLGNLLKALGRLEEAKACYLKAIETQPNFAVAWSNLGCVFNAQGEIWLAIHHFEKAVTLDPNFLDAYINLGNVLKEARIFDRAVAAYLRALSLSPNHAVVHGNLACVYYEQGLIDLAIDTYRRAIELQPHFPDAYCNLANALKEKGSVAEAEDCYNTALRLCPTHADSLNNLANIKREQGNIEEAVRLYRKALEVFPEFAAAHSNLASVLQQQGKLQEALMHYKEAIRISPTFADAYSNMGNTLKEMQDVQGALQCYTRAIQINPAFADAHSNLASIHKDSGNIPEAIASYRTALKLKPDFPDAYCNLAHCLQIVCDWTDYDERMKKLVSIVADQLEKNRLPSVHPHHSMLYPLSHGFRKAIAERHGNLCLDKINVLHKPPYEHPKDLKLSDGRLRVGYVSSDFGNHPTSHLMQSIPGMHNPDKFEVFCYALSPDDGTNFRVKVMAEANHFIDLSQIPCNGKAADRIHQDGIHILVNMNGYTKGARNELFALRPAPIQAMWLGYPGTSGALFMDYIITDQETSPAEVAEQYSEKLAYMPHTFFIGDHANMFPHLKKKAVIDFKSNGHIYDNRIVLNGIDLKAFLDSLPDVKIVKMKCPDGGDNADSSNTALNMPVIPMNTIAEAVIEMINRGQIQITINGFSISNGLATTQINNKAATGEEVPRTIIVTTRSQYGLPEDAIVYCNFNQLYKIDPSTLQMWANILKRVPNSVLWLLRFPAVGEPNIQQYAQNMGLPQNRIIFSPVAPKEEHVRRGQLADVCLDTPLCNGHTTGMDVLWAGTPMVTMPGETLASRVAASQLTCLGCLELIAKNRQEYEDIAVKLGTDLEYLKKVRGKVWKQRISSPLFNTKQYTMELERLYLQMWEHYAAGNKPDHMIKPVEVTESA
**Q.** Which binding [1] does the source give for B1 here?
**A.** binds

**Q.** And the binding [2]?
**A.** no binding

B2: recombinant human OGT (rOGT) (enzyme, UniProt O15294 1-1046)
chain: MASSVGNVADSTEPTKRMLSFQGLAELAHREYQAGDFEAAERHCMQLWRQEPDNTGVLLLLSSIHFQCRRLDRSAHFSTLAIKQNPLLAEAYSNLGNVYKERGQLQEAIEHYRHALRLKPDFIDGYINLAAALVAAGDMEGAVQAYVSALQYNPDLYCVRSDLGNLLKALGRLEEAKACYLKAIETQPNFAVAWSNLGCVFNAQGEIWLAIHHFEKAVTLDPNFLDAYINLGNVLKEARIFDRAVAAYLRALSLSPNHAVVHGNLACVYYEQGLIDLAIDTYRRAIELQPHFPDAYCNLANALKEKGSVAEAEDCYNTALRLCPTHADSLNNLANIKREQGNIEEAVRLYRKALEVFPEFAAAHSNLASVLQQQGKLQEALMHYKEAIRISPTFADAYSNMGNTLKEMQDVQGALQCYTRAIQINPAFADAHSNLASIHKDSGNIPEAIASYRTALKLKPDFPDAYCNLAHCLQIVCDWTDYDERMKKLVSIVADQLEKNRLPSVHPHHSMLYPLSHGFRKAIAERHGNLCLDKINVLHKPPYEHPKDLKLSDGRLRVGYVSSDFGNHPTSHLMQSIPGMHNPDKFEVFCYALSPDDGTNFRVKVMAEANHFIDLSQIPCNGKAADRIHQDGIHILVNMNGYTKGARNELFALRPAPIQAMWLGYPGTSGALFMDYIITDQETSPAEVAEQYSEKLAYMPHTFFIGDHANMFPHLKKKAVIDFKSNGHIYDNRIVLNGIDLKAFLDSLPDVKIVKMKCPDGGDNADSSNTALNMPVIPMNTIAEAVIEMINRGQIQITINGFSISNGLATTQINNKAATGEEVPRTIIVTTRSQYGLPEDAIVYCNFNQLYKIDPSTLQMWANILKRVPNSVLWLLRFPAVGEPNIQQYAQNMGLPQNRIIFSPVAPKEEHVRRGQLADVCLDTPLCNGHTTGMDVLWAGTPMVTMPGETLASRVAASQLTCLGCLELIAKNRQEYEDIAVKLGTDLEYLKKVRGKVWKQRISSPLFNTKQYTMELERLYLQMWEHYAAGNKPDHMIKPVEVTESA
**Q.** For B2, which binding [3] is on record?
**A.** binds

**Q.** What about the binding [4] of the same binder?
**A.** no binding (tested: 2.5 µM)

B3: endogenous OGT of mouse embryonic stem cells (enzyme, UniProt Q8CGY8 1-1046)
chain: MASSVGNVADSTEPTKRMLSFQGLAELAHREYQAGDFEAAERHCMQLWRQEPDNTGVLLLLSSIHFQCRRLDRSAHFSTLAIKQNPLLAEAYSNLGNVYKERGQLQEAIEHYRHALRLKPDFIDGYINLAAALVAAGDMEGAVQAYVSALQYNPDLYCVRSDLGNLLKALGRLEEAKACYLKAIETQPNFAVAWSNLGCVFNAQGEIWLAIHHFEKAVTLDPNFLDAYINLGNVLKEARIFDRAVAAYLRALSLSPNHAVVHGNLACVYYEQGLIDLAIDTYRRAIELQPHFPDAYCNLANALKEKGSVAEAEDCYNTALRLCPTHADSLNNLANIKREQGNIEEAVRLYRKALEVFPEFAAAHSNLASVLQQQGKLQEALMHYKEAIRISPTFADAYSNMGNTLKEMQDVQGALQCYTRAIQINPAFADAHSNLASIHKDSGNIPEAIASYRTALKLKPDFPDAYCNLAHCLQIVCDWTDYDERMKKLVSIVAEQLEKNRLPSVHPHHSMLYPLSHGFRKAIAERHGNLCLDKINVLHKPPYEHPKDLKLSDGRLRVGYVSSDFGNHPTSHLMQSIPGMHNPDKFEVFCYALSPDDGTNFRVKVMAEANHFIDLSQIPCNGKAADRIHQDGIHILVNMNGYTKGARNELFALRPAPIQAMWLGYPGTSGALFMDYIITDQETSPAEVAEQYSEKLAYMPHTFFIGDHANMFPHLKKKAVIDFKSNGHIYDNRIVLNGIDLKAFLDSLPDVKIVKMKCPDGGDNPDSSNTALNMPVIPMNTIAEAVIEMINRGQIQITINGFSISNGLATTQINNKAATGEEVPRTIIVTTRSQYGLPEDAIVYCNFNQLYKIDPSTLQMWANILKRVPNSVLWLLRFPAVGEPNIQQYAQNMGLPQNRIIFSPVAPKEEHVRRGQLADVCLDTPLCNGHTTGMDVLWAGTPMVTMPGETLASRVAASQLTCLGCLELIAKSRQEYEDIAVKLGTDLEYLKKIRGKVWKQRISSPLFNTKQYTMELERLYLQMWEHYAAGNKPDHMIKPVEVTESA
**Q.** B3 was tested. Which binding [5] did it give?
**A.** binds

B4: endogenous OGT of HEK293T cells (enzyme, UniProt O15294 1-1046)
chain: MASSVGNVADSTEPTKRMLSFQGLAELAHREYQAGDFEAAERHCMQLWRQEPDNTGVLLLLSSIHFQCRRLDRSAHFSTLAIKQNPLLAEAYSNLGNVYKERGQLQEAIEHYRHALRLKPDFIDGYINLAAALVAAGDMEGAVQAYVSALQYNPDLYCVRSDLGNLLKALGRLEEAKACYLKAIETQPNFAVAWSNLGCVFNAQGEIWLAIHHFEKAVTLDPNFLDAYINLGNVLKEARIFDRAVAAYLRALSLSPNHAVVHGNLACVYYEQGLIDLAIDTYRRAIELQPHFPDAYCNLANALKEKGSVAEAEDCYNTALRLCPTHADSLNNLANIKREQGNIEEAVRLYRKALEVFPEFAAAHSNLASVLQQQGKLQEALMHYKEAIRISPTFADAYSNMGNTLKEMQDVQGALQCYTRAIQINPAFADAHSNLASIHKDSGNIPEAIASYRTALKLKPDFPDAYCNLAHCLQIVCDWTDYDERMKKLVSIVADQLEKNRLPSVHPHHSMLYPLSHGFRKAIAERHGNLCLDKINVLHKPPYEHPKDLKLSDGRLRVGYVSSDFGNHPTSHLMQSIPGMHNPDKFEVFCYALSPDDGTNFRVKVMAEANHFIDLSQIPCNGKAADRIHQDGIHILVNMNGYTKGARNELFALRPAPIQAMWLGYPGTSGALFMDYIITDQETSPAEVAEQYSEKLAYMPHTFFIGDHANMFPHLKKKAVIDFKSNGHIYDNRIVLNGIDLKAFLDSLPDVKIVKMKCPDGGDNADSSNTALNMPVIPMNTIAEAVIEMINRGQIQITINGFSISNGLATTQINNKAATGEEVPRTIIVTTRSQYGLPEDAIVYCNFNQLYKIDPSTLQMWANILKRVPNSVLWLLRFPAVGEPNIQQYAQNMGLPQNRIIFSPVAPKEEHVRRGQLADVCLDTPLCNGHTTGMDVLWAGTPMVTMPGETLASRVAASQLTCLGCLELIAKNRQEYEDIAVKLGTDLEYLKKVRGKVWKQRISSPLFNTKQYTMELERLYLQMWEHYAAGNKPDHMIKPVEVTESA
**Q.** B4 was tested. Which binding [6] did it give?
**A.** binds

**Q.** What about the binding [7] of the same binder?
**A.** no binding
